Entries after “also recorded” stand apart in the source; their conditions may differ. At least one compound was matched to its structure with a doubt left.
Test system: U937.12 cells
Assay: HMGB1 relocation from nucleus to vesicles in LPS-challenged U937.12 cells (immunofluorescence)
Format: cell-based
Conditions: 30 μM SP600125 together with LPS, 3 hours
Method: Fibroblasts and HeLa cells were cultured in Dulbecco's modified Eagle's medium (DMEM) supplemented with 10% fetal bovine serum (FBS, from Gibco), 100 IU/ml of penicillin and 100 μg/ml streptomycin, in 5% CO2 humidified atmosphere. HeLa cells and 3134 mouse fibroblasts were transfected by calcium phosphate co-precipitation. To express fluorescent proteins, 3×10^5 cells were plated in 6 cm dishes and were transiently transfected with 8 μg of the appropriate plasmid. Cells were observed 36 hours after transfection. […] About 24 hours after transfection, 3134 fibroblasts were treated for 3 hours with 10 ng/ml trichostatin A (TSA, Sigma) before fixing and imaging. Subclone 12[−] of U937 promoyelocitic cells, kindly provided by M. Alfano and G. Poli (HSR, Milano), was grown in RPMI medium (Gibco) supplemented with 10% FCS, L-glutamine, 100 U/ml penicillin 100 μg/ml streptomycin, exposed for 3 days to 0.1 μM vitamin D3 (Roche) to promote CD14 expression, and stimulated with 100 ng/ml LPS (Sigma catalogue #L4391) or with 10 ng/ml TSA for 3 hours. For the experiments with kinase inhibitors, cells were exposed to 1 μM U0126, 10 μM SB203580 or 30 μM SP600125 (all from Calbiochem) at the same time as LPS, and lasting for 3 hours. […]

Compound: Oc1c2ccccc2c2c3c(cccc13)N=N2 [SP600125]
- HMGB1 relocation to vesicles after LPS: but not; also recorded: substantial

Reference: patent US20060111287A1, “Acetylated protein” (priority 2002, published 2006)
